For at least one compound, name, drawing or mass did not settle the structure. Some entries repeat one wording, which the source may state once for all of them.
Test system: cisplatin induced vestibulotoxicity
Assay: Induced deficits of vestibular behavior after transtympanic cisplatin (vestibular deficit score)
Assay type: in vivo, rat
Conditions: transtympanic injection premixed with cisplatin, rats, FIGS. 5 to 11
Experimental: Vestibular deficit associated behaviors were scored on a scale from 0 to 4, respectively ranging from normal behavior (rating 0) to maximal identified vestibular impairment (rating 4). […] Rats were scored for vestibular deficits after transtympanic injection of cisplatin (50 μl, 2 mg/ml) and, evaluated from 4 to 336 hrs after the injection (FIG. 4). Scores were expressed as mean (±sem). For preventive treatment, injection of cimetidine (i.p., 12 mg/kg) was injected 4 hours before the transtympanic injection of cisplatin. Sham animals received saline (i.p) 4 hours before the lesion. To focus on the preventive action of transtympanic injection of the compounds of the invention in the first 72 hours, ototoxicity is induced by a transtympanic injection (50 μl) of cisplatin (2 mg/ml in saline; 6.7 mM) and a determined ratio of corresponding molar dose of compounds are premixed and injected transtympanically with cisplatin. For example, for the dose ratio 1/2 of compound/cisplatin, a solution of 3.5 mM of compound of interest in addition to the 6.7 mM of cisplatin in saline is prepared and, 50 μl of this mixed saline solution is injected transtympanically at TO. Different control animals are run in parallel: saline only, cisplatin (6.7 mM) only to control the initial lesion, and the compounds of interest alone at different doses in saline to control potential ototoxicity of the compound independently of cisplatin, are with cisplatin. […] For transtympanic experiments, rats were scored for vestibular deficits just before the transtympanic injection, TO and, evaluated at 24, 48 & 72 hours after the injection (FIGS. 5 to 11). Scores were expressed as mean (±sem).

SMILES	effect on vestibular toxicity and behavioral deficits induced by cisplatin
COc1ccc2[nH]c([S+]([O-])Cc3ncc(C)c(OC)c3C)nc2c1 (stereo not shown) [omeprazole]	reduces the vestibular toxicity and behavioral deficits
COc1ccnc(C[S+]([O-])c2nc3ccc(OC(F)F)cc3[nH]2)c1OC (stereo not shown) [pantoprazole]	reduces the vestibular toxicity and behavioral deficits
COCCCOc1ccnc(C[S+]([O-])c2nc3ccccc3[nH]2)c1C (stereo not shown) [rabeprazole]	reduces the vestibular toxicity and behavioral deficits
CNC(=C[N+](=O)[O-])NCCSCc1ccc(CN(C)C)o1 [ranitidine]	reduces the vestibular toxicity and behavioral deficits
